Laboratory results reported in article PMC5897410.
No constants are given. Whether binding was seen depends on the method and setting. In cells and extracts the contact can be indirect. A yes stands for co-enrichment or nearness to the bait. Other partners may have been found. Where a sequence is shown, tags or fusion partners need not be part of it.

Protein sequences, listed by entry. Tags and fused reporters are not part of them. Residues count along the entry.
UniProt P10591: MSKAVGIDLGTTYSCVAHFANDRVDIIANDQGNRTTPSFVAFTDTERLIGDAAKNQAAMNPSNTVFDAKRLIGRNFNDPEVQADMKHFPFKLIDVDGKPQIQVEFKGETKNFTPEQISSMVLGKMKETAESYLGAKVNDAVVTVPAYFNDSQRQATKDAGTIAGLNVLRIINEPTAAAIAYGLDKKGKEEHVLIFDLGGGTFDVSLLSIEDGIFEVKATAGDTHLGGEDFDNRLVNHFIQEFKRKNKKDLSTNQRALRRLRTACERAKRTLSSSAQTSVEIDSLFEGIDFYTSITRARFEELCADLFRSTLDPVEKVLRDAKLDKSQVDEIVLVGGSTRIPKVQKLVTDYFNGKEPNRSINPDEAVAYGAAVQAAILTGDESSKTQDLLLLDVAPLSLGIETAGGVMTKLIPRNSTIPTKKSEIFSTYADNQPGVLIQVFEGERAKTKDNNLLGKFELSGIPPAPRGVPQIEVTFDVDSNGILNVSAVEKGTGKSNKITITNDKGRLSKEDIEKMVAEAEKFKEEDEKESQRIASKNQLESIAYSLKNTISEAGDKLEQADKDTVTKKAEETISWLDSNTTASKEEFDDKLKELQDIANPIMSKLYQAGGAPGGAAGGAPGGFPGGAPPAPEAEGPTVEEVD
UniProt P11484: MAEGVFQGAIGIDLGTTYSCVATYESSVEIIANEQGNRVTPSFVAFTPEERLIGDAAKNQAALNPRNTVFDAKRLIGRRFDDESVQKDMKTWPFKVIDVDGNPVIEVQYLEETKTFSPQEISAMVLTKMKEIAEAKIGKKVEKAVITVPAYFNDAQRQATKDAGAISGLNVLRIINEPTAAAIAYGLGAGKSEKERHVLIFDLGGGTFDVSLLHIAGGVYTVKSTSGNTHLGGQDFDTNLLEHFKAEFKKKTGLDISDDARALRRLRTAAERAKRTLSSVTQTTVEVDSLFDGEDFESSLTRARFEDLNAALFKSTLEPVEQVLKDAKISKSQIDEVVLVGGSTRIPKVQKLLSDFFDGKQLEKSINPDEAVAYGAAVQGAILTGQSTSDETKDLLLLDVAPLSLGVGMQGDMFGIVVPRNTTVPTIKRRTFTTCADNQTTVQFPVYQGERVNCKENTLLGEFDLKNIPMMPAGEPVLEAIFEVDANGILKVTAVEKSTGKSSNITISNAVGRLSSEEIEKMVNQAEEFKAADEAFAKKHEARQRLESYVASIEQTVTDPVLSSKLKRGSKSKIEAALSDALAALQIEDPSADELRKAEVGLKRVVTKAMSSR
UniProt P0CS90, residues 24-654: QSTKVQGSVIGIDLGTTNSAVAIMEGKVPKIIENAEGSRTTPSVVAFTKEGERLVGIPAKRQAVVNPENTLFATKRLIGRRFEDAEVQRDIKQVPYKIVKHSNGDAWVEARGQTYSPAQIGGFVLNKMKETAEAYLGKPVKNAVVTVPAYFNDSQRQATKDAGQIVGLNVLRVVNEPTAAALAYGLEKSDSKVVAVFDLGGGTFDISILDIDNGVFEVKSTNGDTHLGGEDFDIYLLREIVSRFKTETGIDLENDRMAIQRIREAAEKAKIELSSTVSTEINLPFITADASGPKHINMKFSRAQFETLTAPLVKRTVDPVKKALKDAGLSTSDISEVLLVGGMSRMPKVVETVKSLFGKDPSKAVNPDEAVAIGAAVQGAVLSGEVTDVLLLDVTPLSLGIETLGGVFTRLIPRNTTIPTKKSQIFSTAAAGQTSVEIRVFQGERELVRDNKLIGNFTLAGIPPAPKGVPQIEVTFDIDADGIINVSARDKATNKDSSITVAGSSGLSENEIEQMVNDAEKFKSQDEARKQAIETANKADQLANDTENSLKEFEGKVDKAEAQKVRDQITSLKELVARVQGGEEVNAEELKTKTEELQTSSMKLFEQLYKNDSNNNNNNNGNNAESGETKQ

T1: GST fused to the unmutated aconitase (Aco1) C-terminal domain (yeast (S. cerevisiae)) (UniProt P19414)
T1 sequence: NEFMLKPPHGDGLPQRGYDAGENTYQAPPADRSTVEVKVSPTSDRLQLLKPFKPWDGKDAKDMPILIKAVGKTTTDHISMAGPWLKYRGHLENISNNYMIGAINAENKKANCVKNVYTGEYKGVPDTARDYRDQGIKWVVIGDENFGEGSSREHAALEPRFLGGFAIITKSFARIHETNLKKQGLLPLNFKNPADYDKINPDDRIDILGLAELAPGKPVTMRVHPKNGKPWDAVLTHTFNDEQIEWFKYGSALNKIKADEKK

B1: Sse2, endogenous (protein, UniProt P32590 1-693)
chain: MSTPFGLDLGNNNSVLAVARNRGIDVVVNEVSNRSTPSLVGFGPRNRYLGESGKTKQTSNVKNTVENLKRIIGLKFKDPEFDIENKFFTSKLVQLKNGKVGVEVEFGGKTHVFSATQLTAMFIDKVKHTVQEETKSSITDVCLAVPVWYSEEQRYNIADAARIAGLNPVRIVNDVTAAAVSYGVFKNDLPGPEEKPRIIGLVDIGHSTYTCSIMAFRKGEMKVLGTAYDKHFGGRDFDRAITEHFADQFKDKYKIDIRKNPKAYNRILIAAEKLKKVLSANTTAPFSVESVMDDIDVSSQLSREELEELVEPLLKRVTYPITNALAQAKLTVNDIDFVEIIGGTTRIPVLKKSISDVFGKPLSSTLNQDEAVAKGAAFICAIHSPTLRVRPFKFEDIDPYSVSYTWDKQVDDEDRLEVFPANSSYPSTKLITLHRTGDFSMKAVYTHPSKLPKGTSTTIAKWSFTGVKVPKDQDFIPVKVKLRCDPSGLHIIENAYTTEDITVQEPVPLPEDAPEDAEPQFKEVTKTIKKDVLGMTAKTFALNPVELNDLIEKENELRNQDKLVAETEDRKNALEEYIYTLRAKLDDEYSDFASDAEKEKLKNMLATTENWLYGDGDDSTKAKYIAKYEELASLGNIIRGRYLAKEEEKRQALRANQETSKMNDIAEKLAEQRRARAASDDSDDNNDENMDLD

The molecules below were run against T1, GST fused to the unmutated aconitase (Aco1) C-terminal domain (yeast (S. cerevisiae)) (assay: affinity purification with mass spectrometry; GST-C or GST-CΔ6 (bait) expressed in yeast, pulled down from lysates with glutathione beads; trypsin digestion in solution or in gel; LC-MS/MS).

binding, binds:
Ssa1 (cytosolic Hsp70), endogenous (from UniProt P10591 1-642)
Ssb1, endogenous (from UniProt P11484 1-613)
Ssc1, endogenous (from UniProt P0CS90 24-654)
B1
